Results taken from the supplement of paper PMC10849652.
Some of the results follow.

Amino acid sequences for entries named in this document (tags omitted). A change or cut given only in a name is not applied to a line headed by its entry.
UniProt Q9GZP4: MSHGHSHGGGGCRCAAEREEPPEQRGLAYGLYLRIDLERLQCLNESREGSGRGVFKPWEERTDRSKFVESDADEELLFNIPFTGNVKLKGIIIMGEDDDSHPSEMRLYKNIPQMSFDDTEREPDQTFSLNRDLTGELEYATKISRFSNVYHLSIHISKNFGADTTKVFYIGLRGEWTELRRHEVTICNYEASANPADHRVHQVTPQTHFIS
UniProt Q6P5Z2: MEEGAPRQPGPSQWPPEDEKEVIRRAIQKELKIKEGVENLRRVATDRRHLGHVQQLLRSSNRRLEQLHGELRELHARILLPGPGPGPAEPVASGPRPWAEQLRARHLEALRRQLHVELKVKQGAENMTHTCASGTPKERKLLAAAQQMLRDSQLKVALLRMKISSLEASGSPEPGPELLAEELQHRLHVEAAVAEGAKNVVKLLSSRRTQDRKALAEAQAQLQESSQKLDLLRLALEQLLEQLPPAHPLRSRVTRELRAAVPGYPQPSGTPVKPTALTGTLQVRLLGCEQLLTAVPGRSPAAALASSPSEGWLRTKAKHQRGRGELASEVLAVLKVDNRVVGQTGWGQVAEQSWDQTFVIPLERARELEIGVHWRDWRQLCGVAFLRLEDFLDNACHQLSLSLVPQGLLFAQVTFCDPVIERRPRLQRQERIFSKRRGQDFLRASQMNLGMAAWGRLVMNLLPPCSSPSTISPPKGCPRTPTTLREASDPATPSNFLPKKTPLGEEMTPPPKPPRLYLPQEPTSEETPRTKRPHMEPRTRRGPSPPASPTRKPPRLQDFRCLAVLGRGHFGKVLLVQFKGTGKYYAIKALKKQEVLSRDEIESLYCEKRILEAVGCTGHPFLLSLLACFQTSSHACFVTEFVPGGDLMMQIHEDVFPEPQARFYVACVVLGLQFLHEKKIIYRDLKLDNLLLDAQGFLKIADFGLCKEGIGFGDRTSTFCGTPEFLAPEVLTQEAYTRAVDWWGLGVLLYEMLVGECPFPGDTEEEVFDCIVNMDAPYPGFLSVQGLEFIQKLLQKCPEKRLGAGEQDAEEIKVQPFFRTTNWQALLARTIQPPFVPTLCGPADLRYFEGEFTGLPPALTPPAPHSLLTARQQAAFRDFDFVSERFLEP
UniProt Q9Y237, whole entry, looked up: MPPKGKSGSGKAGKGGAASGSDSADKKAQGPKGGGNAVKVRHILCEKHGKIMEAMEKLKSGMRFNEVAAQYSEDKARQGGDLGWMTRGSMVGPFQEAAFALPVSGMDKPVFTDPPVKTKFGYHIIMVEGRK
UniProt Q9NWS0, whole entry, looked up: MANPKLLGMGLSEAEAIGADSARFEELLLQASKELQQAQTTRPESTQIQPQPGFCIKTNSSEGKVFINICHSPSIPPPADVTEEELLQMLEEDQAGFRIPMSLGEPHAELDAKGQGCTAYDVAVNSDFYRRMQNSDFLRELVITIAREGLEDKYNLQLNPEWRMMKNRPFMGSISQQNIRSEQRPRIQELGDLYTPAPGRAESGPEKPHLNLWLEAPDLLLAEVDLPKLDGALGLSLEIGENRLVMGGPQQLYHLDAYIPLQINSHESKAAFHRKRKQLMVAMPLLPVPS
UniProt Q9P1Y6: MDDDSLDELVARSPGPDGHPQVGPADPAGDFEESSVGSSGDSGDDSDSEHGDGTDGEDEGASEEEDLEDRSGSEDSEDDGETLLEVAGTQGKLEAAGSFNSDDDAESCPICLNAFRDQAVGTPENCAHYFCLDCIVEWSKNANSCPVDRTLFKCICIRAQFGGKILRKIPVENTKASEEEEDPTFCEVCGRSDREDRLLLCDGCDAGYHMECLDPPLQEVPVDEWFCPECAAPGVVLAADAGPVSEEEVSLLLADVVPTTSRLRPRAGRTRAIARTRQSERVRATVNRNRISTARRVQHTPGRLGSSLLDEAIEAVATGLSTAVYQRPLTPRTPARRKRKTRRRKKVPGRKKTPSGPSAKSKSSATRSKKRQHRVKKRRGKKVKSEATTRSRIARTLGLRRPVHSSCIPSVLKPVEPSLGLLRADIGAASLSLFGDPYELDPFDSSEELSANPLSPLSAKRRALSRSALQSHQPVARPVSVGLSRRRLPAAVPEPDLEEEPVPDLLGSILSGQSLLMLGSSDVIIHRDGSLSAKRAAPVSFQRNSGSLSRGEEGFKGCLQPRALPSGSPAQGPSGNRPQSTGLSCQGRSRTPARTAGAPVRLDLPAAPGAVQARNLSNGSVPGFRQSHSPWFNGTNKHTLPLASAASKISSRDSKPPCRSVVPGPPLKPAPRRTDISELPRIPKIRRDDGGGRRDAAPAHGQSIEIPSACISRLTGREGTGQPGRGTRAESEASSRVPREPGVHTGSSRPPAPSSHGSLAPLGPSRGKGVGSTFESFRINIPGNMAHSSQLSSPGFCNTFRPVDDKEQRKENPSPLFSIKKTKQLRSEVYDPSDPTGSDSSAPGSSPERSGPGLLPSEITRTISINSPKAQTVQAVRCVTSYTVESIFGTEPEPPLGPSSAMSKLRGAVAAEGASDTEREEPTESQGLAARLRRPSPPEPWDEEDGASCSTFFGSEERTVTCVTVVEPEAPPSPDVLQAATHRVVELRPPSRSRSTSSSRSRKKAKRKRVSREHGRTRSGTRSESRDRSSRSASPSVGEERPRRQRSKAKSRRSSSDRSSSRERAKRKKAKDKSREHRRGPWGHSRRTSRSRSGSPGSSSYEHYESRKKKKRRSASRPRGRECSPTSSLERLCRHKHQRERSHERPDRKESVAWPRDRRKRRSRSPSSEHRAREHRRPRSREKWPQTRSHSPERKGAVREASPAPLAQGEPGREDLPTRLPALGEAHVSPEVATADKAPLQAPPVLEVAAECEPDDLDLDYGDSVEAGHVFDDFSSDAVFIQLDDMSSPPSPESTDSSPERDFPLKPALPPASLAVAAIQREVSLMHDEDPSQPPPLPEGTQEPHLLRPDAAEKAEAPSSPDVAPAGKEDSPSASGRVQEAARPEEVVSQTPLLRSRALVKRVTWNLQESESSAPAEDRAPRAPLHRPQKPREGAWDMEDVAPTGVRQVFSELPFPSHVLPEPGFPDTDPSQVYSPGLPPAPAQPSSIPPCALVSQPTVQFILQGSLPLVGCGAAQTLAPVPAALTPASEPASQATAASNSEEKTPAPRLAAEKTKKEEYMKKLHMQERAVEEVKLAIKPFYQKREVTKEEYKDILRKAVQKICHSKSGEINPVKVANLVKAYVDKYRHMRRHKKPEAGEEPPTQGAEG
UniProt O00264: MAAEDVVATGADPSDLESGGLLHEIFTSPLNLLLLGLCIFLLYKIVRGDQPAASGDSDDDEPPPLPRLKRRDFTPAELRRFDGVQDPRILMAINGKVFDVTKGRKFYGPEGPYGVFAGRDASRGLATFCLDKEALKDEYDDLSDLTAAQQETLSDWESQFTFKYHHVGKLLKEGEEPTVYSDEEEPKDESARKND
UniProt Q16513: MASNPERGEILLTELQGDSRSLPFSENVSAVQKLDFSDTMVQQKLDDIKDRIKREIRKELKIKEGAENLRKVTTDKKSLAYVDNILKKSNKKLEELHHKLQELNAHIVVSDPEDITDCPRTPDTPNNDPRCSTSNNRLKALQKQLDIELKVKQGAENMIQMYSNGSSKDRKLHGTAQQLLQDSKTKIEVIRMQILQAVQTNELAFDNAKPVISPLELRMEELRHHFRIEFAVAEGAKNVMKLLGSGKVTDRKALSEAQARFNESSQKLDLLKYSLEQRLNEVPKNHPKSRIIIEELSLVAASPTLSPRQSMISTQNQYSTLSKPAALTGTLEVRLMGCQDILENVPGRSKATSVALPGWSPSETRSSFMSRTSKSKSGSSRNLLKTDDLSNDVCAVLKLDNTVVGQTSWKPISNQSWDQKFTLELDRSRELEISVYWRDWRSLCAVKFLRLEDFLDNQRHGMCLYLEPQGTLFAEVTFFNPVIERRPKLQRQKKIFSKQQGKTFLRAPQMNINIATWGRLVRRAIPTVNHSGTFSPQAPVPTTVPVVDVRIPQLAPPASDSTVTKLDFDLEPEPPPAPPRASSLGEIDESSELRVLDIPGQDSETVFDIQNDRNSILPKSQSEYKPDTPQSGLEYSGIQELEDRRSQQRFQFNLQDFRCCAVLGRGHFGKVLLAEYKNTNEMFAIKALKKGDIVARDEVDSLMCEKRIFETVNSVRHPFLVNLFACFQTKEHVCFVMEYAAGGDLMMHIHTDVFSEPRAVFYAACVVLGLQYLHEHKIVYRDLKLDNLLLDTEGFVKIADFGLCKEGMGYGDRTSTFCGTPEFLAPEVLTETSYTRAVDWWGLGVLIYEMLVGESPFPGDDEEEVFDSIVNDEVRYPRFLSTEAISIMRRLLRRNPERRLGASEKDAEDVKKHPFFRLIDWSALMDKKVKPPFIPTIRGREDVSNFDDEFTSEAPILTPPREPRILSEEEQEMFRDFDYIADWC
UniProt P42338: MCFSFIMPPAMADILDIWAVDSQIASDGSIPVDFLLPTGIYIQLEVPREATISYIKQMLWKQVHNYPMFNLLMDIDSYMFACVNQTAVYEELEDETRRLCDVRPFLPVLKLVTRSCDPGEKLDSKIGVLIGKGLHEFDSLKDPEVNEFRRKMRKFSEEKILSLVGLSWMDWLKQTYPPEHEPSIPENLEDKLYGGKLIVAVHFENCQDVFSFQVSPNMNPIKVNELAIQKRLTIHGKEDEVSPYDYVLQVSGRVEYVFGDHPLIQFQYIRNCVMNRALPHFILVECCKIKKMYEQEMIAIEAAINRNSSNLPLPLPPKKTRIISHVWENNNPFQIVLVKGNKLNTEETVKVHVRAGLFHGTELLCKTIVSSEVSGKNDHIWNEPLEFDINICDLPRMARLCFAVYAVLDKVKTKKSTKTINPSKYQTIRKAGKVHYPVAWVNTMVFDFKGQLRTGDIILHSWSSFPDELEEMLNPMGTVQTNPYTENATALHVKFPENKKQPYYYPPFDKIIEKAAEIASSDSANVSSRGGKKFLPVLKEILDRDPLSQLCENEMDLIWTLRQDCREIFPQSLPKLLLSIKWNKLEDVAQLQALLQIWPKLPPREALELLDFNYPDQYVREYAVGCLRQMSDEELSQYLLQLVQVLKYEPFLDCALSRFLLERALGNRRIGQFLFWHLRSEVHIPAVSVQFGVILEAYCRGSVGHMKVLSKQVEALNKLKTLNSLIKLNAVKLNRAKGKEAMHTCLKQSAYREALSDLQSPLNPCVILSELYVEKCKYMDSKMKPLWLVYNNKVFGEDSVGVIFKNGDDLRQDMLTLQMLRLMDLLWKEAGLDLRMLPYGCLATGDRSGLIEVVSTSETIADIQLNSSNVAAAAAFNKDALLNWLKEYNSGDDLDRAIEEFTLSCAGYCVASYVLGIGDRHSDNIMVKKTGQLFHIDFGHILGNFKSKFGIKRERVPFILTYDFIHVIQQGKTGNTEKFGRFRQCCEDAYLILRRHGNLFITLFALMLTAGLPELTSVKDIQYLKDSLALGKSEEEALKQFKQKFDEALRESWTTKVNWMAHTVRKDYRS
UniProt Q5H8A4: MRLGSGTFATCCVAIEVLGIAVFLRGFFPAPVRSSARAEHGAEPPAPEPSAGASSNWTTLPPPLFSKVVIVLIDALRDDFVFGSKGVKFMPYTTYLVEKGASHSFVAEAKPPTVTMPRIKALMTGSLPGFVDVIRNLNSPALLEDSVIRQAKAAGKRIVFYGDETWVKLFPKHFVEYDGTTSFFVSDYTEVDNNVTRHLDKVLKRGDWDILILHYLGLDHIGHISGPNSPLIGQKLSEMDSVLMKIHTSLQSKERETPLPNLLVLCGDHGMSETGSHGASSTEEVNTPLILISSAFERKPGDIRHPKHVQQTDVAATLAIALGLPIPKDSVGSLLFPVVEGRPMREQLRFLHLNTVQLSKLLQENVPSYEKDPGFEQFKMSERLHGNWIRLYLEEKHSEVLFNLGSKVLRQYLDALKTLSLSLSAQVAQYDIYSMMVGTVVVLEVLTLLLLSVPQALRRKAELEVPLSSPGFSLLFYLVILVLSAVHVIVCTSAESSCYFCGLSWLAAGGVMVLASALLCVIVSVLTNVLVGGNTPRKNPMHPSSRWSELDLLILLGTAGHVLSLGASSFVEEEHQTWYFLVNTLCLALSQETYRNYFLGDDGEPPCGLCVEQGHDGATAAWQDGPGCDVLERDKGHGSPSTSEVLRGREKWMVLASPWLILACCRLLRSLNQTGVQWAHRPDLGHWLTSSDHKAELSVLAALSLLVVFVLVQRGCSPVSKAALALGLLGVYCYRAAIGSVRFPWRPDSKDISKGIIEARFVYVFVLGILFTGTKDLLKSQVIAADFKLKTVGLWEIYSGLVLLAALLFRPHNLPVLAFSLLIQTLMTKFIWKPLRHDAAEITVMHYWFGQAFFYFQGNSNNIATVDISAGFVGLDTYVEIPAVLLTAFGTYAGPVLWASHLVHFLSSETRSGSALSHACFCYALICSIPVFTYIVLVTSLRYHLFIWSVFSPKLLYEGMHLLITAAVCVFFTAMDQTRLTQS

Tests used:
Assay in all cases: log2 fold change, soluble protein after heating vs DMSO (PISA); higher = thermal stabilisation; K562 lysate, 10 uM; active = over 0.2 and 3.5 SD of the protein, either way, in both replicates (recomputed)
[1] = compound: CN1CC[C@H](c2c(O)cc(O)c3c(=O)cc(-c4ccccc4Cl)oc23)[C@H](O)C1 [alvocidib]
Summary of the method: (§1)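 Pellets of K562 cells were dounce-homogenised in PBS pH 7.4 with 1 mM MgCl2, and the crude extract was held at 1 mg/mL protein for a 30 min treatment with 10 μM compound. Aliquots were heated for 3 min over 48°C-58°C and pooled before NP-40 was added to 0.5% at 4°C. The supernatant from 21,000xg for 90 min was quantified by TMTpro 16plex LC-MS/MS with channel sums equalised. Values are reported from duplicates as log-two fold change in thermal stability relative to solvent controls.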

[2] = compound: CN1CCc2c(c3ccccc3n2Cc2ccc(C(=O)NO)cc2)C1 [Tubastatin A]
Summary of the method: as §1

[3] = compound: CNC(=O)C1=CC=CC=C1NC2=NC(=NC=C2Cl)NC3=C(C=C(C=C3)N4CCOCC4)OC
Summary of the method: as §1

[4] = compound: CNC(=O)c1ccc(Nc2ncc(C(F)(F)F)c(NCc3nccnc3N(C)S(C)(=O)=O)n2)cc1 [defactinib]
Summary of the method: as §1

[5] = compound: CNc1nc(-c2ccc3c(N)n[nH]c3c2)cc(N2C[C@@H](C(=O)NC3CCCCC3)CC[C@H]2C)n1
Summary of the method: as §1

[6] = compound: COC(=O)N[C@@H](C)CNc1nccc(-c2cn(C(C)C)nc2-c2cc(Cl)cc(NS(C)(=O)=O)c2F)n1 [encorafenib]
Summary of the method: as §1

[7] = compound: COC(=O)[C@H](CCSC)NC(=O)C1=C(C=C(C=C1)NC[C@H](CS)N)C2=CC=CC=C2
Summary of the method: as §1

[8] = compound: COc1cc(Nc2ncc3c(n2)-c2ccc(Cl)cc2C(c2c(F)cccc2OC)=NC3)ccc1C(=O)O [alisertib]
Summary of the method: as §1

[9] = compound: COc1cc2nc(-c3cc(F)ccc3O)nc(N[C@@H]3CNC[C@H]3C(C)(C)O)c2cc1OC
Summary of the method: as §1

[10] = compound: COc1cc2ncnc(Nc3ccc(F)c(Cl)c3)c2cc1OCCCN1CCOCC1 [gefitinib]
Summary of the method: as §1

[11] = compound: CS(=O)(=O)CCNCc1ccc(-c2ccc3ncnc(Nc4ccc(OCc5cccc(F)c5)c(Cl)c4)c3c2)o1 [lapatinib]
Summary of the method: as §1

[12] = compound: CS(=O)(=O)N1CCN(Cc2cc3nc(-c4cccc5[nH]ncc45)nc(N4CCOCC4)c3s2)CC1 [pictilisib]
Summary of the method: as §1

[13] = compound: C[C@@H](Oc1cc(-c2cnn(C3CCNCC3)c2)cnc1N)c1c(Cl)ccc(F)c1Cl [crizotinib]
Summary of the method: as §1

[14] = compound: C[C@H](C1=CC=C(C=C1)C(=O)NC2=C3C=CNC3=NC=C2)N
Summary of the method: as §1

[15] = compound: C[C@H](Nc1ncnc2nc[nH]c12)c1cc2cccc(Cl)c2c(=O)n1-c1ccccc1 [duvelisib]
Summary of the method: as §1

[16] = compound: Cc1cc(Nc2cc(CN3CCOCC3)c3nc(C)c(Cc4ccc(Cl)cc4F)n3n2)n[nH]1 [gandotinib]
Summary of the method: as §1

[17] = compound: Cc1cc(Nc2cc(N3CCN(C)CC3)nc(Sc3ccc(NC(=O)C4CC4)cc3)n2)n[nH]1 [tozasertib]
Summary of the method: as §1

[18] = compound: Cc1ccc(-n2nc(C(C)(C)C)cc2NC(=O)Nc2ccc(OCCN3CCOCC3)c3ccccc23)cc1 [doramapimod]
Summary of the method: as §1

[19] = compound: Cc1ccc(NC(=O)c2ccc(CN3CC[C@H](N(C)C)C3)c(C(F)(F)F)c2)cc1Nc1nccc(-c2cncnc2)n1 [bafetinib]
Summary of the method: as §1

[20] = compound: Cc1cccc(CC(=O)N2CCc3c2ccc(-c2cn(C)c4ncnc(N)c24)c3F)n1
Summary of the method: as §1

Row | Target | log2 fold change [1] | log2 fold change [2] | log2 fold change [3] | log2 fold change [4] | log2 fold change [5] | log2 fold change [6] | log2 fold change [7] | log2 fold change [8] | log2 fold change [9] | log2 fold change [10] | log2 fold change [11] | log2 fold change [12] | log2 fold change [13] | log2 fold change [14] | log2 fold change [15] | log2 fold change [16] | log2 fold change [17] | log2 fold change [18] | log2 fold change [19] | log2 fold change [20]
1 | PITHD1 (UniProt Q9GZP4) | inactive: -0.025 | inactive: 0.045 | inactive: -0.024 | inactive: -0.034 | inactive: 0.075 | inactive: -0.033 | inactive: -0.048 | inactive: -0.028 | inactive: 0.051 | inactive: -0.008 | inactive: 0.006 | inactive: 0.002 | inactive: -0.006 | inactive: -0.083 | inactive: 0.001 | inactive: 0.101 | inactive: -0.013 | inactive: -0.036 | inactive: 0.16 | inactive: 0.037
2 | PKN3 (UniProt Q6P5Z2) | inactive: 0.034 | inactive: 0.157 | inactive: 0.032 | inactive: -0.007 | inactive: 0.008 | inactive: 0.088 | inactive: -0.064 | inactive: -0.001 |  | inactive: 0.008 |  | inactive: -0.073 | inactive: -0.123 | inactive: 0.026 | inactive: 0.024 | inactive: -0.119 | inactive: -0.064 | inactive: -0.091 | inactive: -0.252 | inactive: 0.18
3 | PGS1 (UniProt Q32NB8) | inactive: -0.019 | inactive: -0.11 | inactive: -0.065 | inactive: 0.05 | inactive: -0.03 | inactive: -0.03 | inactive: -0.183 | inactive: 0.031 | inactive: -0.14 | inactive: -0.079 | inactive: -0.095 | inactive: -0.043 | inactive: -0.171 | inactive: -0.003 | inactive: -0.002 | inactive: 0.038 | inactive: 0.026 | inactive: 0.042 | inactive: -0.254 | inactive: -0.008
4 | PHF21A isoform 3 (UniProt Q96BD5) | inactive: -0.156 | inactive: -0.162 | inactive: 0.029 | inactive: -0.025 | inactive: -0.054 | inactive: 0.053 | inactive: 0.016 | inactive: 0.221 | inactive: 0.114 | inactive: -0.062 | inactive: 0.024 | inactive: 0.075 | inactive: 0.038 | inactive: -0.155 | inactive: 0.037 | inactive: -0.028 | inactive: 0.005 | inactive: 0.01 | inactive: 0.031 | inactive: 0.045
5 | PIGA (UniProt P37287) | inactive: -0.054 | inactive: 0.067 | inactive: -0.014 | inactive: -0.074 | inactive: 0 | inactive: -0.019 | inactive: 0.063 |  | inactive: -0.038 |  | inactive: -0.015 | inactive: -0.164 | inactive: -0.048 | inactive: -0.099 | inactive: 0.004 | inactive: -0.001 | inactive: 0.009 | inactive: 0.057 | inactive: -0.066 | inactive: 0.101
6 | PIN4 isoform 2 (UniProt Q9Y237) | inactive: 0.005 | inactive: 0.033 | inactive: -0.013 | inactive: 0 | inactive: 0.017 | inactive: -0.02 | inactive: -0.034 | inactive: -0.037 | inactive: -0.016 | inactive: -0.023 | inactive: -0.007 | inactive: 0 | inactive: 0.063 | inactive: -0.028 | inactive: 0.032 | inactive: 0.034 | inactive: 0.006 | inactive: 0.015 | inactive: 0.016 | inactive: -0.009
7 | PIK3CA (UniProt P42336) | inactive: -0.034 | inactive: 0.116 | inactive: 0.047 | inactive: 0.027 | inactive: -0.171 | inactive: -0.009 | inactive: -0.056 | inactive: -0.018 | inactive: 0.009 |  | inactive: -0.015 | inactive: -0.001 | inactive: 0.032 | inactive: 0.025 | inactive: -0.251 | inactive: -0.052 | inactive: 0.058 | inactive: -0.027 | inactive: -0.086 | inactive: 0.01
8 | PIH1D1 (UniProt Q9NWS0) | inactive: -0.013 | inactive: -0.012 | inactive: 0.025 | inactive: 0.028 | inactive: -0.021 | inactive: 0.05 | inactive: -0.065 | inactive: -0.009 | inactive: -0.011 | inactive: -0.016 | inactive: 0.041 | inactive: -0.017 | inactive: -0.005 | inactive: 0.024 | inactive: 0.01 | inactive: 0.013 | inactive: 0.02 | inactive: 0.014 | inactive: 0.058 | inactive: 0.005
9 | PHRF1 (UniProt Q9P1Y6) | inactive: -0.059 | inactive: 0.023 | inactive: 0.088 | inactive: -0.024 | inactive: 0.016 | inactive: 0.078 | inactive: 0.017 | inactive: 0.023 | inactive: 0.006 | inactive: 0.055 | inactive: -0.092 | inactive: -0.075 | inactive: 0.025 | inactive: -0.038 | inactive: -0.006 | inactive: 0.071 | inactive: 0.004 | inactive: 0.009 | inactive: 0.059 | inactive: 0.086
10 | PHF23 (UniProt Q9BUL5) | inactive: -0.018 | inactive: -0.04 | inactive: 0.036 | inactive: 0.022 | inactive: -0.005 | inactive: -0.006 | inactive: -0.099 | inactive: 0.002 | inactive: -0.005 | inactive: 0.017 | inactive: 0.016 | inactive: -0.061 | inactive: 0.042 | inactive: 0.055 | inactive: 0.02 | inactive: 0.004 | inactive: 0.117 | inactive: -0.006 | inactive: 0.012 | inactive: -0.006
11 | PGRMC1 (UniProt O00264) | inactive: -0.026 | inactive: 0.01 | inactive: -0.022 | inactive: 0.02 | inactive: -0.014 | inactive: 0.006 | active: -0.258 | inactive: 0.006 | inactive: 0.006 | inactive: 0.03 | inactive: 0.001 | inactive: -0.023 | inactive: 0.057 | inactive: -0.011 | inactive: -0.024 | inactive: 0.047 | inactive: 0.035 | inactive: -0.052 | inactive: 0.004 | inactive: 0.018
12 | PKN1 isoform 2 (UniProt Q16512) | inactive: -0.036 | inactive: -0.056 | inactive: -0.001 | inactive: -0.079 | inactive: -0.003 | inactive: 0.075 | inactive: 0.116 | inactive: -0.009 | inactive: -0.1 | inactive: -0.005 | inactive: 0.038 | inactive: -0.005 | inactive: -0.032 | inactive: 0.095 | inactive: -0.014 | inactive: -0.233 | inactive: -0.005 | inactive: 0.108 | inactive: -0.069 | inactive: 0.04
13 | PKN2 (UniProt Q16513) | inactive: -0.052 | inactive: -0.043 | inactive: 0.047 | inactive: -0.015 | inactive: 0.045 | inactive: 0.037 | inactive: 0.049 |  | inactive: -0.037 | inactive: 0 | inactive: 0.005 | inactive: -0.018 | inactive: -0.116 | inactive: -0.096 | inactive: -0.012 | inactive: -0.033 |  | inactive: 0.036 | inactive: -0.091 | inactive: 0.119
14 | PIK3CB (UniProt P42338) | inactive: -0.002 | inactive: -0.123 | inactive: 0.056 | inactive: -0.044 | inactive: -0.013 | inactive: -0.02 | inactive: -0.126 | inactive: -0.01 | inactive: -0.011 | inactive: -0.019 | inactive: -0.007 | active: 0.497 | inactive: -0.068 | inactive: 0.022 | active: 0.645 | inactive: 0.096 | inactive: 0.017 | inactive: -0.006 | inactive: -0.034 | inactive: 0.012
15 | PIGG (UniProt Q5H8A4) | inactive: 0.034 | inactive: 0.034 | inactive: -0.015 | inactive: -0.025 | inactive: 0.006 | inactive: 0.023 | inactive: -0.121 | inactive: -0.033 | inactive: 0.003 | inactive: 0.043 | inactive: -0.068 | inactive: 0.006 | inactive: -0.076 | inactive: 0.146 | inactive: 0.014 | inactive: -0.119 | inactive: 0.015 | inactive: 0.048 | inactive: -0.035 | inactive: -0.039
16 | PHYKPL (UniProt Q8IUZ5) | inactive: 0.051 | inactive: 0.074 | inactive: -0.006 | inactive: 0.032 | inactive: -0.009 | inactive: 0.115 | inactive: -0.023 |  | inactive: 0.026 |  | inactive: -0.019 | inactive: -0.117 | inactive: 0.017 | inactive: -0.066 | inactive: 0.219 | inactive: 0.031 | inactive: 0.064 | inactive: 0.016 | inactive: -0.072 | inactive: 0.014

Given as comma-separated lines: part of the list above
Row,Target,log2 fold change [1],log2 fold change [2],log2 fold change [3],log2 fold change [4],log2 fold change [5],log2 fold change [6],log2 fold change [7],log2 fold change [8],log2 fold change [9],log2 fold change [10],log2 fold change [11],log2 fold change [12],log2 fold change [13],log2 fold change [14],log2 fold change [15],log2 fold change [16],log2 fold change [17],log2 fold change [18],log2 fold change [19],log2 fold change [20]
4,PHF21A isoform 3 (UniProt Q96BD5),inactive: -0.156,inactive: -0.162,inactive: 0.029,inactive: -0.025,inactive: -0.054,inactive: 0.053,inactive: 0.016,inactive: 0.221,inactive: 0.114,inactive: -0.062,inactive: 0.024,inactive: 0.075,inactive: 0.038,inactive: -0.155,inactive: 0.037,inactive: -0.028,inactive: 0.005,inactive: 0.01,inactive: 0.031,inactive: 0.045
5,PIGA (UniProt P37287),inactive: -0.054,inactive: 0.067,inactive: -0.014,inactive: -0.074,inactive: 0,inactive: -0.019,inactive: 0.063,,inactive: -0.038,,inactive: -0.015,inactive: -0.164,inactive: -0.048,inactive: -0.099,inactive: 0.004,inactive: -0.001,inactive: 0.009,inactive: 0.057,inactive: -0.066,inactive: 0.101
